Article PMC2998426
No constants are given. Whether binding was seen depends on the method and setting. Binding seen in cells or lysates may run through a third protein.

Protein sequences, listed by entry. Tags and fused reporters are not part of them.
UniProt O75691: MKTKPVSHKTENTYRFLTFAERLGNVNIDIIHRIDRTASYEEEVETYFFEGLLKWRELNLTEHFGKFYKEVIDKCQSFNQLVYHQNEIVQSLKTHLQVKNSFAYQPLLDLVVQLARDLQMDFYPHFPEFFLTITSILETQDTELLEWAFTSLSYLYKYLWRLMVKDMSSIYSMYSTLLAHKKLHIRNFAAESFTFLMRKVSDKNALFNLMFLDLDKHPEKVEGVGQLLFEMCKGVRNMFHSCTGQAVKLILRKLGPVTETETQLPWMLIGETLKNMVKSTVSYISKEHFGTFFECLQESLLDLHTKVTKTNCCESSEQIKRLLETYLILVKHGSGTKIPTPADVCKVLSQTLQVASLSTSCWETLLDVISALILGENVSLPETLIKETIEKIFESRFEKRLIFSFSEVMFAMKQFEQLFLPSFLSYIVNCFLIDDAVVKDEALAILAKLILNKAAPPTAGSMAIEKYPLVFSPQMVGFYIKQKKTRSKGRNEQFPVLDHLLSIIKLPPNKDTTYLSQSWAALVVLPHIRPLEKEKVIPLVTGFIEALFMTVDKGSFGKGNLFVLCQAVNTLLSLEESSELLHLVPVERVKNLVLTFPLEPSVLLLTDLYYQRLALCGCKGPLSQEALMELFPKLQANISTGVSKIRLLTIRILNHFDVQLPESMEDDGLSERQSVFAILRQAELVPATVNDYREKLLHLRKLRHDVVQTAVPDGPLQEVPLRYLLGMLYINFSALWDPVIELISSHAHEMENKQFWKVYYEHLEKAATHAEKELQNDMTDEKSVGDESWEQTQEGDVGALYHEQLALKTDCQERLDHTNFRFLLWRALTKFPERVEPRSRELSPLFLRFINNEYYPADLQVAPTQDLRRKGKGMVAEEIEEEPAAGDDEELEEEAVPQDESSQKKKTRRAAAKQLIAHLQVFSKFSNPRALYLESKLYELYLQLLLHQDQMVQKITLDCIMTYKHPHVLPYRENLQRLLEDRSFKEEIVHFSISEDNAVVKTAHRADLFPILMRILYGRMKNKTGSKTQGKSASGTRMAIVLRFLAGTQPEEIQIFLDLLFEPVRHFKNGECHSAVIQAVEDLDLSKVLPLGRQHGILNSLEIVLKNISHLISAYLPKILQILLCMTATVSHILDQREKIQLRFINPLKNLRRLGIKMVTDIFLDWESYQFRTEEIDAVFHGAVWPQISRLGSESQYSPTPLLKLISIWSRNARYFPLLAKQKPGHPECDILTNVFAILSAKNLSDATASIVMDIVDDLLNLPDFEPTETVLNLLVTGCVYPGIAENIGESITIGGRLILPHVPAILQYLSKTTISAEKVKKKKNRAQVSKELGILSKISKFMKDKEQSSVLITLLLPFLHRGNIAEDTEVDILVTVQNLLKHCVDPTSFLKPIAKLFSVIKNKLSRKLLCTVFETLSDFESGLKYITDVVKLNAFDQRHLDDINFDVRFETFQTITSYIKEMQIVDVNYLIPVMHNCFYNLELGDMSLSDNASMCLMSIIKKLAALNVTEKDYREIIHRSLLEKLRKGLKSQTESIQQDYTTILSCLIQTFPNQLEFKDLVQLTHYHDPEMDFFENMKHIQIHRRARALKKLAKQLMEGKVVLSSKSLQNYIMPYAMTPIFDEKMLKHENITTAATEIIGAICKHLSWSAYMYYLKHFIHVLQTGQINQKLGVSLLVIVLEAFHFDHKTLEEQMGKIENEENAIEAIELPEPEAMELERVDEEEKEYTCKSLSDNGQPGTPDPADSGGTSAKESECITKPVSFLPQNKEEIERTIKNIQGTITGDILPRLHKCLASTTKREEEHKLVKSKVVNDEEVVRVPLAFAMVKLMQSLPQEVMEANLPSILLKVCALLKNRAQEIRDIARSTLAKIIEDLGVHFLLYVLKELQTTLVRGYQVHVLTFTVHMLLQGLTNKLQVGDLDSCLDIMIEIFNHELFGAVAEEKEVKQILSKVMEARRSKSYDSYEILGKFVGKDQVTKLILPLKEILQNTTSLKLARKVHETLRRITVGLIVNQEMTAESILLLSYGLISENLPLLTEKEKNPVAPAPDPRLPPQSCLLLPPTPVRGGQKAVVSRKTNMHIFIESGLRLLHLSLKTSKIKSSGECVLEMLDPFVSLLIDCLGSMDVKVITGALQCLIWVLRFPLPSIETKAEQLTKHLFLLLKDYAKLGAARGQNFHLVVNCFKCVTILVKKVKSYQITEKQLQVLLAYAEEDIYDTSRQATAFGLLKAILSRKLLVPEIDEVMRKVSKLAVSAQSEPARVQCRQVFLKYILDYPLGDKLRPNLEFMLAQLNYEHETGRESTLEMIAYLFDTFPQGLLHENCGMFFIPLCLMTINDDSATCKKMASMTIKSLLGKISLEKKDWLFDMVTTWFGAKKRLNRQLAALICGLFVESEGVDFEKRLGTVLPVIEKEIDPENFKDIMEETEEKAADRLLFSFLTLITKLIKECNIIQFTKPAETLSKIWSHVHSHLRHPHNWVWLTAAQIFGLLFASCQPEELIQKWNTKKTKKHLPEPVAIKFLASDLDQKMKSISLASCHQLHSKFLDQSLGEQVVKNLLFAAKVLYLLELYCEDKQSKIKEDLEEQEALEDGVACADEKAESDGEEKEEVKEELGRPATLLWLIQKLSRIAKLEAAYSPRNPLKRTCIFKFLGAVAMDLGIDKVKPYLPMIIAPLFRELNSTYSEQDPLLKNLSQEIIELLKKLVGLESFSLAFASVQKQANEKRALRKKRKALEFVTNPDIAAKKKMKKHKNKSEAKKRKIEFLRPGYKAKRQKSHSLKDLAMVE

Biological target: 1A6/DRIM (human (endogenous in U2OS)) (UniProt O75691)
Assay: co-IP; U2OS cell lysate in NET buffer (150 mM NaCl, 5 mM EDTA, 50 mM Tris-Cl pH7.5) with 1% NP-40; anti-1A6/DRIM antibody 6D9 crosslinked to protein A sepharose beads, 4 h at 4°C; endogenous proteins, Western blotting

- binding: no binding
B1: TAFI110 (protein, UniProt Q15572 1-869)
chain: MDFPSSLRPALFLTGPLGLSDVPDLSFMCSWRDALTLPEAQPQNSENGALHVTKDLLWEPATPGPLPMLPPLIDPWDPGLTARDLLFRGGCRYRKRPRVVLDVTEQISRFLLDHGDVAFAPLGKLMLENFKLEGAGSRTKKKTVVSVKKLLQDLGGHQPWGCPWAYLSNRQRRFSILGGPILGTSVASHLAELLHEELVLRWEQLLLDEACTGGALAWVPGRTPQFGQLVYPAGGAQDRLHFQEVVLTPGDNPQFLGKPGRIQLQGPVRQVVTCTVQGESKALIYTFLPHWLTCYLTPGPFHPSSALLAVRSDYHCAVWKFGKQWQPTLLQAMQVEKGATGISLSPHLPGELAICSRSGAVCLWSPEDGLRQIYRDPETLVFRDSSSWRWADFTAHPRVLTVGDRTGVKMLDTQGPPGCGLLLFRLGAEASCQKGERVLLTQYLGHSSPKCLPPTLHLVCTQFSLYLVDERLPLVPMLKWNHGLPSPLLLARLLPPPRPSCVQPLLLGGQGGQLQLLHLAGEGASVPRLAGPPQSLPSRIDSLPAFPLLEPKIQWRLQERLKAPTIGLAAVVPPLPSAPTPGLVLFQLSAAGDVFYQQLRPQVDSSLRRDAGPPGDTQPDCHAPTASWTSQDTAGCSQWLKALLKVPLAPPVWTAPTFTHRQMLGSTELRREEEEGQRLGVLRKAMARGQLLLQRDLGSLPAAEPPPAPESGLEDKLSERLGEAWAGRGAAWWERQQGRTSEPGRQTRRPKRRTQLSSSFSLSGHVDPSEDTSSPHSPEWPPADALPLPPTTPPSQELTPDACAQGVPSEQRQMLRDYMAKLPPQRDTPGCATTPPHSQASSVRATRSQQHTPVLSSSQPLRKKPRMGF
